# Test results published in patent US9168329B2, “Beta-peptides with antifungal activity” (Wisconsin Alumni Research Foundation, priority 2006, dated 2015).
# Like-named read-outs stand apart in the source and are kept apart here. Not every detail of the peptide structures is certain; ends, links or a residue may be inferred. Some of these results come from one statement about several compounds together. Some compounds share one range, which may span the group rather than tell each member.
# Key:
# [1] = test system: Candida albicans biofilms (ATCC 90028, ATCC 24433, SC5314); experiment: Biofilm antifungal susceptibility testing (pre-formed biofilms, XTT); type: cell-based; conditions: for concentration reducing biofilms by 80% compared to untreated biofilms, as multiple of planktonic MIC: pre-formed biofilms; for reduction in biofilm growth: at the highest concentration tested
# Procedure: The susceptibility of Candida albicans biofilms to β-peptide treatment was evaluated using procedures based on the method described by Ramage and Lopez-Ribot. (Ramage, G.; Lopez-Ribot, J. L. Methods Mol. Med. 2005, 118, 71-79). ATCC 90028, ATCC 24433, and SC5314 were grown in liquid yeast peptone dextrose (YPD) medium overnight at 30° C. The cells were washed two times with phosphate-buffered saline (PBS, pH 7.2) and resuspended in RPMI 1640 (with L-glutamine and without sodium bicarbonate, Invitrogen) buffered with 0.145 mol/L 3-(N-morpholino) propanesulfonic acid (MOPS). After adjusting the cell suspension to about 1×10^6 cells/mL in RPMI 1640, 100 μL of the cell suspension was added to selected wells of flat-bottom 96-well plates (Falcon), leaving the last column of wells empty for background controls. Plates were covered and incubated at 37° C. for 48 hours to allow biofilms to form.
# After formation, biofilms were washed three times with 200 μL of PBS per well to remove nonadherent cells. Twofold serial dilutions of β-peptide in RPMI 1640 were made, and 100 μL was added to the biofilms in the first 10 columns of the 96-well plates. RPMI 1640 without antifungal (100 μL) was added to the wells in column 11 to serve as a positive growth control. Plates were covered and incubated at 37° C. for an additional 48 hours and then washed as before.
# A solution of 0.5 g/L of 2,3-bis(2-methoxy-4-nitro-5-sulfo-phenyl)-2H-tetrazolium-5-carboxanilide (XTT, Sigma) was prepared, and 10 mM menadione (Sigma) in acetone was added to give a final menadione concentration of 1 μM. The XTT solution (100 μL) was added to each well containing a biofilm and to the empty column of wells. The plates were incubated for 1.5 hours at 37° C. to allow the C. albicans cells to reduce the XTT. Following incubation, 75 μL of XTT solution was removed from each well and put into a new 96-well plate to measure the absorbance at 490 nm. The reduction of growth for each concentration of β-peptide was calculated from
# [formula] where A490^peptide is the average absorbance for wells containing a specified concentration of a β-peptide, A490^no drug is the average absorbance for wells with biofilms not treated with antifungal, and A490^XTT is the average absorbance for wells containing only XTT. At least three replicates were included for each combination of β-peptide and C. albicans strains. Assay for Biofilm Formation in the Presence of β-Peptide
# [2] = test system: Candida albicans (SC5314, ATCC 24433, ATCC 90028); type: cell-based
# Procedure: Minimum inhibitory concentration assay. Minimum inhibitory concentrations (MIC) for the β-peptides were determined using the broth microdilution assay described by the Committee for Clinical and Laboratory Standards (formerly known as the National Committee for Clinical Laboratory Standards) (National Committee for Clinical Laboratory Standards Reference method for broth dilution antifungal susceptibility testing of yeasts: approved standard—second edition; NCCLS document M27-A2; NCCLS: Wayne, Pa., 2002). Three strains of Candida albicans were used: SC5314, ATCC 24433, and ATCC 90028. Cells were grown for 24 hours on Sabouraud dextrose agar at 30° C. After 24 hours of growth, the cells were suspended in 0.145 M saline, and the concentration was adjusted to between 1×10^6 cells/mL and 5×10^6 cells/mL in saline. The working suspension was obtained by diluting the suspension 1:1000 in RPMI 1640 (with L-glutamine and without sodium bicarbonate, Invitrogen) buffered with 0.145 mol/L 3-(N-morpholino) propanesulfonic acid (MOPS).
# Twofold serial dilutions of stock solutions of α- or β-peptides or amphotericin B (Calbiochem, solubilized in dimethyl sulfoxide) were made in RPMI 1640, and 100 μL aliquots were put into 96-well plates (Falcon). An equal volume of the cell suspension was added to the wells for a total volume of 200 μL. Growth controls and sterility controls were included.
# Plates were incubated at 35° C. for 48 h and then visually inspected for fungal growth. […] Experiments were performed in duplicate and repeated on at least two different days.
# [3] = pH 7, physiological ionic strength
molecule,measurement,setting,value
"CC(C)[C@@H](CC(=O)N[C@@H](CCCCN)CC(=O)N[C@H]1CCCC[C@@H]1C(=O)N[C@H](CC(=O)N[C@@H](CCCCN)CC(=O)N[C@H]1CCCC[C@@H]1C(=O)N[C@H](CC(=O)N[C@@H](CCCCN)CC(N)=O)C(C)C)C(C)C)NC(=O)[C@H]1CCCC[C@@H]1NC(=O)C[C@@H](N)Cc1ccc(O)cc1 [β-peptide 1, β^3Tyr-(ACHC-β^3Val-β^3Lys)3]","concentration reducing biofilms by 80% compared to untreated biofilms, as multiple of planktonic MIC",[1],1-15 times their planktonic MIC
"CC(C)C[C@@H](CC(=O)N[C@@H](CCCCN)CC(=O)N[C@H]1CCCC[C@@H]1C(=O)N[C@H](CC(=O)N[C@@H](CCCCN)CC(=O)N[C@H]1CCCC[C@@H]1C(=O)N[C@H](CC(=O)N[C@@H](CCCCN)CC(N)=O)CC(C)C)CC(C)C)NC(=O)[C@H]1CCCC[C@@H]1NC(=O)C[C@@H](N)Cc1ccc(O)cc1 [β-peptide 2, β^3Tyr-(ACHC-β^3Leu-β^3Lys)3]",MIC,[2]; planktonic C. albicans strain SC5314,82 g/mL
"NCCCC[C@@H](CC(N)=O)NC(=O)C[C@H](Cc1ccccc1)NC(=O)[C@H]1CCCC[C@@H]1NC(=O)C[C@H](CCCCN)NC(=O)C[C@H](Cc1ccccc1)NC(=O)[C@H]1CCCC[C@@H]1NC(=O)C[C@H](CCCCN)NC(=O)C[C@H](Cc1ccccc1)NC(=O)[C@H]1CCCC[C@@H]1NC(=O)C[C@@H](N)Cc1ccc(O)cc1 [β-peptide 3, β^3Tyr-(ACHC-β^3Phe-β^3Lys)3]","concentration reducing biofilms by 80% compared to untreated biofilms, as multiple of planktonic MIC",[1],1-15 times their planktonic MIC
same,MIC,[2]; against all tested strains,8 µg/mL
same,antifungal activity in the planktonic NCCLS assay (in words),[2]; [3],showed activity in the planktonic assay
"CC(C)[C@@H](CC(=O)N[C@@H](CCCCN)CC(=O)N[C@H](CC(=O)N[C@H](CC(=O)N[C@@H](CCCCN)CC(=O)N[C@H](CC(=O)N[C@H](CC(=O)N[C@@H](CCCCN)CC(N)=O)C(C)C)C(C)C)C(C)C)C(C)C)NC(=O)C[C@@H](NC(=O)C[C@@H](N)Cc1ccc(O)cc1)C(C)C [β-peptide 4, β^3Tyr-(β^3Val-β^3Val-β^3Lys)3]","concentration reducing biofilms by 80% compared to untreated biofilms, as multiple of planktonic MIC",[1],1-15 times their planktonic MIC
"NCCCC[C@@H](CC(N)=O)NC(=O)[C@H]1CCCC[C@@H]1NC(=O)[C@H]1CCCC[C@@H]1NC(=O)C[C@H](CCCCN)NC(=O)[C@H]1CCCC[C@@H]1NC(=O)[C@H]1CCCC[C@@H]1NC(=O)C[C@H](CCCCN)NC(=O)[C@H]1CCCC[C@@H]1NC(=O)[C@H]1CCCC[C@@H]1NC(=O)C[C@@H](N)Cc1ccc(O)cc1 [β-peptide 5, β^3Tyr-(ACHC-ACHC-β^3Lys)3]","concentration reducing biofilms by 80% compared to untreated biofilms, as multiple of planktonic MIC",[1],1-15 times their planktonic MIC
same,reduction of fungal growth in biofilm,"[1]; two C. albicans strains, 75-100 μg/mL",~100%
same,Average MIC,"[2]; average over three C. albicans strains, pH 7, physiological ionic strength, Table 1 prints no unit",21 µg/mL
same,antifungal activity in the planktonic NCCLS assay (in words),[2]; [3],showed activity in the planktonic assay
β^3Tyr-(ACHC-β^3Val-β^3Arg)3,"concentration reducing biofilms by 80% compared to untreated biofilms, as multiple of planktonic MIC",[1],1-15 times their planktonic MIC
β^3Tyr-(ACHC-β^3Val-β^3Lys)2,reduction in biofilm growth,[1],< 80%
β^3Tyr-ACHC-(ACHC-β^3Lys)3-ACHC-ACHC,reduction in biofilm growth,[1],< 80%
